According to the supplement of paper PMC9233669:
Variants at the background level are over-represented here.

How the values were obtained:
[1] = test system: biotinyl-Leu-oxazolone; test: self-aminoacylation, catalytic enhancement (BLO) (fold over background); higher = more active; k-Seq, kA / k0A0; sequences stand for … in GGGAAUGGAUCCACAUCUACGAAUUC…UUCACUGCAGACUUGACGAAGCUG
Procedure, shortened: (§1)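 Mutagenized RNA pools with a 21-nt variable region (0.43 μM) reacted with each biotinyl-aminoacyl-oxazolone at 2–1250 μM. Reactions ran in 50 μL HEPES/NaCl/KCl/MgCl2/CaCl2 buffer with 5% acetonitrile, pH 6.9–7.0, for 90 minutes at room temperature. Streptavidin-captured RNA was quantified by triplicate qPCR and Illumina sequencing, and per-sequence fraction reacted was fit to a pseudo-first-order model with 1000 bootstraps. Catalytic enhancement is median kA divided by the uncatalyzed rate, the low-activity peak of a bimodal Gaussian fit.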

[2] = test system: biotinyl-Ile-oxazolone; test: self-aminoacylation, catalytic enhancement (BIO) (fold over background); higher = more active; k-Seq, kA / k0A0; sequences stand for … in GGGAAUGGAUCCACAUCUACGAAUUC…UUCACUGCAGACUUGACGAAGCUG
Procedure, shortened: as §1

[3] = test system: biotinyl-Phe-oxazolone; test: self-aminoacylation, catalytic enhancement (BFO) (fold over background); higher = more active; k-Seq, kA / k0A0; sequences stand for … in GGGAAUGGAUCCACAUCUACGAAUUC…UUCACUGCAGACUUGACGAAGCUG
Procedure, shortened: as §1

[4] = test system: biotinyl-Trp-oxazolone; test: self-aminoacylation, catalytic enhancement (BWO) (fold over background); higher = more active; k-Seq, kA / k0A0; sequences stand for … in GGGAAUGGAUCCACAUCUACGAAUUC…UUCACUGCAGACUUGACGAAGCUG
Procedure, shortened: as §1

[5] = test system: biotinyl-Val-oxazolone; test: self-aminoacylation, catalytic enhancement (BVO) (fold over background); higher = more active; k-Seq, kA / k0A0; sequences stand for … in GGGAAUGGAUCCACAUCUACGAAUUC…UUCACUGCAGACUUGACGAAGCUG
Procedure, shortened: as §1

[6] = test system: biotinyl-Met-oxazolone; test: self-aminoacylation, catalytic enhancement (BMO) (fold over background); higher = more active; k-Seq, kA / k0A0; sequences stand for … in GGGAAUGGAUCCACAUCUACGAAUUC…UUCACUGCAGACUUGACGAAGCUG
Procedure, shortened: as §1

AUACUUCUAACAAUCGGUCUG [Fam1A.1 aminoacylation ribozyme variant]
self-aminoacylation [1]: 0.922
self-aminoacylation [2]: 1.04
self-aminoacylation [3]: 1.06
self-aminoacylation [4]: 0.961
self-aminoacylation [5]: 0.967
self-aminoacylation [6]: 0.968

AUCACCCUGGUCAUCGCGUGA [Fam2.1 aminoacylation ribozyme variant]
self-aminoacylation [1]: 36.4
self-aminoacylation [2]: 12.1
self-aminoacylation [3]: 215
self-aminoacylation [4]: 33.8
self-aminoacylation [5]: 17.1
self-aminoacylation [6]: 33.9

AUCCACCUAGAUCAUCGGGUG [Fam2.2 aminoacylation ribozyme variant]
self-aminoacylation [1]: 4.88
self-aminoacylation [2]: 3.37
self-aminoacylation [3]: 23.2
self-aminoacylation [4]: 4.45
self-aminoacylation [5]: 3.26
self-aminoacylation [6]: 3.25

AUCUACCUAGGUCAUCGGGUG [Fam2.2 aminoacylation ribozyme variant]
self-aminoacylation [1]: 12.1
self-aminoacylation [2]: 6.54
self-aminoacylation [3]: 51.1
self-aminoacylation [4]: 8.66
self-aminoacylation [5]: 6.18
self-aminoacylation [6]: 10

AUGCACCAAGGUCAUCGGGUG [Fam2.2 aminoacylation ribozyme variant]
self-aminoacylation [1]: 9.2
self-aminoacylation [2]: 4.95
self-aminoacylation [3]: 59.9
self-aminoacylation [4]: 9.96
self-aminoacylation [5]: 5.23
self-aminoacylation [6]: 7.84

AUGCACCUAGGUCAUCGGGUU [Fam2.2 aminoacylation ribozyme variant]
self-aminoacylation [1]: 4.54
self-aminoacylation [2]: 3.66
self-aminoacylation [3]: 5.22
self-aminoacylation [4]: 4.05
self-aminoacylation [5]: 3.24
self-aminoacylation [6]: 4.43

AUGCAUCUAGGUCAUCGGGUG [Fam2.2 aminoacylation ribozyme variant]
self-aminoacylation [1]: 9.38
self-aminoacylation [2]: 5.83
self-aminoacylation [3]: 57
self-aminoacylation [4]: 9.62
self-aminoacylation [5]: 5.41
self-aminoacylation [6]: 8.33

AUGUUGGCUAAUAGUCGCAAG [Fam3.1 aminoacylation ribozyme variant]
self-aminoacylation [1]: 1.3
self-aminoacylation [2]: 1.47
self-aminoacylation [3]: 1.85
self-aminoacylation [4]: 1.12
self-aminoacylation [5]: 1.29
self-aminoacylation [6]: 1.5

AUGUUUGCAAAUAGUCGCAAG [Fam3.1 aminoacylation ribozyme variant]
self-aminoacylation [1]: 1.2
self-aminoacylation [2]: 1.55
self-aminoacylation [3]: 1.07
self-aminoacylation [4]: 1.03
self-aminoacylation [5]: 1.28
self-aminoacylation [6]: 1.47

AUGUUUGCGAAUAGUCGCAAG [Fam3.1 aminoacylation ribozyme variant]
self-aminoacylation [1]: 1.29
self-aminoacylation [2]: 1.35
self-aminoacylation [3]: 2.47
self-aminoacylation [4]: 1.92
self-aminoacylation [5]: 1.6
self-aminoacylation [6]: 1.46

AUUAACCUGGUCAUCGAGUAA [Fam2.1 aminoacylation ribozyme variant]
self-aminoacylation [1]: 1.08
self-aminoacylation [2]: 0.983
self-aminoacylation [3]: 1.05
self-aminoacylation [4]: 1.02
self-aminoacylation [5]: 1.09
self-aminoacylation [6]: 0.99

AUUAACCUGGUCAUCGAGUGA [Fam2.1 aminoacylation ribozyme variant]
self-aminoacylation [1]: 7.64
self-aminoacylation [2]: 3.97
self-aminoacylation [3]: 8.46
self-aminoacylation [4]: 8.57
self-aminoacylation [5]: 4.02
self-aminoacylation [6]: 7.3

AUUAACCUGGUCGUCGAGUGA [Fam2.1 aminoacylation ribozyme variant]
self-aminoacylation [1]: 0.886
self-aminoacylation [2]: 0.891
self-aminoacylation [3]: 0.504
self-aminoacylation [4]: 0.565
self-aminoacylation [5]: 0.901
self-aminoacylation [6]: 1.2

AUUACCAUGGUCAUCGAUUGA [Fam2.1 aminoacylation ribozyme variant]
self-aminoacylation [1]: 0.956
self-aminoacylation [2]: 0.838
self-aminoacylation [3]: 0.561
self-aminoacylation [4]: 1.07
self-aminoacylation [5]: 1
self-aminoacylation [6]: 0.928

AUUACCCCGGUCAUCAAGUGA [Fam2.1 aminoacylation ribozyme variant]
self-aminoacylation [1]: 1.45
self-aminoacylation [2]: 1.16
self-aminoacylation [3]: 1.75
self-aminoacylation [4]: 1.52
self-aminoacylation [5]: 1.04
self-aminoacylation [6]: 1.3

AUUACCCCGGUCAUCGAAUGA [Fam2.1 aminoacylation ribozyme variant]
self-aminoacylation [1]: 0.683
self-aminoacylation [2]: 0.916
self-aminoacylation [3]: 0.837
self-aminoacylation [4]: 0.62
self-aminoacylation [5]: 1.09
self-aminoacylation [6]: 0.762

AUUACCCCGGUCAUCGAUUGA [Fam2.1 aminoacylation ribozyme variant]
self-aminoacylation [1]: 0.553
self-aminoacylation [2]: 0.968
self-aminoacylation [3]: 1.15
self-aminoacylation [4]: 1.16
self-aminoacylation [5]: 0.907
self-aminoacylation [6]: 0.575

AUUACCCUAGUCAUCGAGGGA [Fam2.1 aminoacylation ribozyme variant]
self-aminoacylation [1]: 1.78
self-aminoacylation [2]: 1.34
self-aminoacylation [3]: 0.669
self-aminoacylation [4]: 1.83
self-aminoacylation [5]: 1.31
self-aminoacylation [6]: 1.78

AUUACCCUAGUCAUCGAGUGG [Fam2.1 aminoacylation ribozyme variant]
self-aminoacylation [1]: 1.76
self-aminoacylation [2]: 1.29
self-aminoacylation [3]: 1.44
self-aminoacylation [4]: 1.07
self-aminoacylation [5]: 1.41
self-aminoacylation [6]: 1.83

AUUACCCUCGUCAUCGAGAGA [Fam2.1 aminoacylation ribozyme variant]
self-aminoacylation [1]: 0.746
self-aminoacylation [2]: 0.769
self-aminoacylation [3]: 0.86
self-aminoacylation [4]: 0.469
self-aminoacylation [5]: 0.864
self-aminoacylation [6]: 1.01

AUUACCCUGAUCAUCCAGUGA [Fam2.1 aminoacylation ribozyme variant]
self-aminoacylation [1]: 5.22
self-aminoacylation [2]: 2.91
self-aminoacylation [3]: 16.9
self-aminoacylation [4]: 7.09
self-aminoacylation [5]: 3.49
self-aminoacylation [6]: 5.79

AUUACCCUGAUCAUCGAGCGA [Fam2.1 aminoacylation ribozyme variant]
self-aminoacylation [1]: 1.61
self-aminoacylation [2]: 1.48
self-aminoacylation [3]: 0.755
self-aminoacylation [4]: 1.98
self-aminoacylation [5]: 1.32
self-aminoacylation [6]: 1.44

AUUACCCUGAUCAUCGAGUGA [Fam2.1 aminoacylation ribozyme variant]
self-aminoacylation [1]: 7.82
self-aminoacylation [2]: 3.8
self-aminoacylation [3]: 21.8
self-aminoacylation [4]: 9.57
self-aminoacylation [5]: 4.15
self-aminoacylation [6]: 7.96

AUUACCCUGAUCAUCGAGUGC [Fam2.1 aminoacylation ribozyme variant]
self-aminoacylation [1]: 0.904
self-aminoacylation [2]: 0.731
self-aminoacylation [3]: 0.751
self-aminoacylation [4]: 0.799
self-aminoacylation [5]: 0.837
self-aminoacylation [6]: 0.864

AUUACCCUGAUCAUCGAGUGU [Fam2.1 aminoacylation ribozyme variant]
self-aminoacylation [1]: 3.28
self-aminoacylation [2]: 1.81
self-aminoacylation [3]: 5.33
self-aminoacylation [4]: 5.04
self-aminoacylation [5]: 2.24
self-aminoacylation [6]: 4.23
